# The shares of active, inactive and inconclusive entries below differ from those in the screen. For some assays here: A potency beside an inconclusive call is a rough fit, not a confirmed value. Activity calls are given as the source filed them. The calls were made as follows: active = hit-call score of the fitted dose curve at least 0.9, where 1 is the maximum; inconclusive = response in the unintended direction; inactive = score below 0.9.
# Chains of the proteins cited; added tags and fusions are not shown. Lines headed by an entry give the natural chain unless they say otherwise; changes in a name come on top.
# UniProt P21709: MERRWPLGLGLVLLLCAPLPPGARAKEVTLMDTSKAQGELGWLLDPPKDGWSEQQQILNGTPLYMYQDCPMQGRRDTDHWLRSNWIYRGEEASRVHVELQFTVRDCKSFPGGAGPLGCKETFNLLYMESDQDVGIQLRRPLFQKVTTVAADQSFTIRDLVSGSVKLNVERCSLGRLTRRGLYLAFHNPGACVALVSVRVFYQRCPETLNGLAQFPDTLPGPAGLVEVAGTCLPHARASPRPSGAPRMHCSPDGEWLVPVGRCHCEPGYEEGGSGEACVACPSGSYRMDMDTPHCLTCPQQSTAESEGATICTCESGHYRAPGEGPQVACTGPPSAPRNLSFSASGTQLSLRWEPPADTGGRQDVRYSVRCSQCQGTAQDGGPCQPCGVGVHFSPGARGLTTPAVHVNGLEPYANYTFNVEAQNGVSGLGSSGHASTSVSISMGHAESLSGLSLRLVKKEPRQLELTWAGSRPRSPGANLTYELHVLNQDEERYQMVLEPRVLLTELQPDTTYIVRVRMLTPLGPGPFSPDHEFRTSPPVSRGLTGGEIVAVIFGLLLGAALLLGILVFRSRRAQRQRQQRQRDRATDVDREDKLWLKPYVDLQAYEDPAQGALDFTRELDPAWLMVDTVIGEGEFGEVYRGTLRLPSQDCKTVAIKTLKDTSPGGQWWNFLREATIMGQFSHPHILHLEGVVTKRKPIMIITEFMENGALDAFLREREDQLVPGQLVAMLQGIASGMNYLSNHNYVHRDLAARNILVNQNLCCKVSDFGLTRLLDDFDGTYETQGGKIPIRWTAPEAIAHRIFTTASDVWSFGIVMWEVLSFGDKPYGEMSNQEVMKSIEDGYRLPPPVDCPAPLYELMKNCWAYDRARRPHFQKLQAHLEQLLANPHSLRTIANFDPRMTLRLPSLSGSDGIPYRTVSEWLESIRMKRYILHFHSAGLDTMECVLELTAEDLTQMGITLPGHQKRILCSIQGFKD
# UniProt P37231: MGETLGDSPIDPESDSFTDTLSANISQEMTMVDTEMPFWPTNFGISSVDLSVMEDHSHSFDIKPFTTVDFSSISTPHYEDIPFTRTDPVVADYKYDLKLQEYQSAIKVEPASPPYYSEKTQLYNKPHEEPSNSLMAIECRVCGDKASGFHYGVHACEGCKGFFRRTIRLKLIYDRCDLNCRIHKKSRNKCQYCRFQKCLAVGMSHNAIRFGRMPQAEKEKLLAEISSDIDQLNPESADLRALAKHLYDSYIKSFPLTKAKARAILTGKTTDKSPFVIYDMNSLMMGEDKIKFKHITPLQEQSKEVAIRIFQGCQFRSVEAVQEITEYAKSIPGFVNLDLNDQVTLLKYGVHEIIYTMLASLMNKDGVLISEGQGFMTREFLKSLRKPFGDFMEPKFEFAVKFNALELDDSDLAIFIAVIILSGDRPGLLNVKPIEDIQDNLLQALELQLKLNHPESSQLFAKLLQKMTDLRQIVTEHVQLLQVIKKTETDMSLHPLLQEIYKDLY
# UniProt Q92731, whole entry, looked up: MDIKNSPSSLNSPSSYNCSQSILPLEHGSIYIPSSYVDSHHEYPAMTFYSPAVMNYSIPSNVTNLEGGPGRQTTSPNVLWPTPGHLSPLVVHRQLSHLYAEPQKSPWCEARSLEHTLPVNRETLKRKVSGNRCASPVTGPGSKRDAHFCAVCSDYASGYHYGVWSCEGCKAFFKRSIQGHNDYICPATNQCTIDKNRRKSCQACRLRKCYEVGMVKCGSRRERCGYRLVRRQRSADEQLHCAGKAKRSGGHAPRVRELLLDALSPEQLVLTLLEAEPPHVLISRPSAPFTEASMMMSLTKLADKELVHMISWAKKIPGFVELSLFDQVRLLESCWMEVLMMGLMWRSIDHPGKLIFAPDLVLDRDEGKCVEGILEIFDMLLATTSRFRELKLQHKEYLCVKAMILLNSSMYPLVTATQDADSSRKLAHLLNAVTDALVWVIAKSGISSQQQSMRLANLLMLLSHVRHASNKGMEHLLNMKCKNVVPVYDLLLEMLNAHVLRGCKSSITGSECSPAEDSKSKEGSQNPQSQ
# Columns and labels:
# [1] = Tanguay_ZF_120hpf_EYE_legacy: (Legacy) Oregon State University Tanguay Lab 120 Hour Post-fertilization zebrafish Assay for Eye Malformation (AID 2283636)
# How it was run: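 Dechorionated Tropical 5D zebrafish embryos, one per well from 6 hpf, static exposure to 120 hpf at 28C, 0.64% DMSO. Eye malformation scored present/absent by brightfield; dead embryos not scored.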
# [2] = Tanguay_ZF_120hpf_SOMI_legacy: (Legacy) Oregon State University Tanguay Lab 120 Hour Post-fertilization zebrafish Assay for Somite Malformation (AID 2283647)
# How it was run: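 Binary brightfield scoring of somite defects at 120 hpf in 5D wild-type larvae; one dechorionated embryo per well, static exposure from 6 hpf, 28C, sealed and dark. Final DMSO 0.64%; trimethyltin chloride 5uM positive control.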
# [3] = Tanguay_ZF_120hpf_CFIN_legacy: (Legacy) Oregon State University Tanguay Lab 120 Hour Post-fertilization zebrafish Assay for Caudal Fin Malformation (AID 2283649)
# How it was run: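 Dechorionated 5D wild-type zebrafish, static exposure 6–120 hpf, 28C, sealed and dark, 0.64% v/v DMSO final. Binary fin-malformation call at 120 hpf, brightfield; gain of signal vs DMSO baseline.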
# [4] = Tanguay_ZF_120hpf_CIRC_legacy: (Legacy) Oregon State University Tanguay Lab 120 Hour Post-fertilization zebrafish Assay for Circulatory Malformation (AID 2283651)
# How it was run: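 Read-out: presence or absence of circulatory malformation at 120 hpf, scored by brightfield microscopy, fitted in the gain-of-signal direction against DMSO baseline. Wild-type 5D larvae were exposed from 6 hpf after enzymatic chorion removal.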
# [5] = Tanguay_ZF_120hpf_SWIM_legacy: (Legacy) Oregon State University Tanguay Lab 120 Hour Post-fertilization zebrafish Assay for Swim Bladder Malformation (AID 2283654);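 also: swim bladder malformation in each larva scored yes or no under brightfield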
# How it was run: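 Dechorionated wild-type Tropical 5D zebrafish embryos, one per well from 6 hpf, were statically exposed at 28C until 120 hpf in 0.64% DMSO. Swim bladder malformation scored as present/absent by brightfield microscopy; not scored in dead larvae.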
# [6] = Tanguay_ZF_120hpf_TRUN_legacy: (Legacy) Oregon State University Tanguay Lab 120 Hour Post-fertilization zebrafish Assay for Truncated Body (AID 2283655)
# How it was run: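 Whole-embryo zebrafish screen: dechorionated 5D embryos, static exposure 6–120 hpf, 28C, sealed foil-covered plates, 0.64% DMSO. Binary truncation call; gain of signal versus DMSO baseline.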
# [7] = ACEA_AR_antagonist_AUC_viability: ACEA Biosciences xCELLigence Real-Time Cell Analysis on Androgen Receptor Antagonism for Viability (AID 2283776);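 also: 22Rv1 human prostate cancer cells growing on impedance electrode plates; area under impedance growth curve at 80 h after dosing as viability; hits lower the growth signal relative to DMSO meaning cytotoxicity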
# How it was run: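 Viability endpoint from label-free cell-index monitoring: 22Rv1 cultures treated with an eight-point 1:4 dilution series starting at 100 uM final, AUC at 80 h fitted against DMSO.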
# [8] = CCTE_Deisenroth_AIME_384WELL_CTox_Active: Cytotoxicity Assessment (CTOX) in CCTE's 384-well Estrogen Receptor Transactivation Assay with AIME metabolic competence (metabolism positive), Deisenroth Lab (AID 2284037);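 also: chemicals first conditioned 2 h by alginate-bound induced rat liver S9 before cells; activity means signal loss indicating cell death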
# How it was run: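 Chemicals pre-incubated 2 hours with alginate-immobilised phenobarbital/beta-naphthoflavone-induced male Sprague Dawley rat liver S9, then conditioned medium applied 24 hour to VM7Luc4E2 cells. Viability by fluorogenic protease substrate; 10-point series 0.002 - 200 uM.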
# [9] = CCTE_Deisenroth_AIME_384WELL_CTox_Inactive: Cytotoxicity Assessment (CTOX) in CCTE's 384-well Estrogen Receptor Transactivation Assay without AIME metabolic competence (metabolism negative), Deisenroth Lab (AID 2284039);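 also: cell viability via live-cell protease substrate cleaved to fluorescent probe; cells exposed 24 h to medium preincubated 2 h with alginate-water beads without S9; loss of fluorescence signal means loss of viability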
# How it was run: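 Fluorescence from a live-cell protease substrate, read after 24 h in VM7Luc4E2 cells, indicated viability. Test medium came from a 2 h AIME step without hepatic S9 (alginate-water microspheres); concentrations spanned 0.002 - 200 uM, single technical replicate per run.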
# [10] = target: human Ephrin type-A Receptor 1 (EphA1), EPHA1 (gene 2041) (UniProt P21709); experiment: NVS_ENZ_hEphA1: NovaScreen (NVS) Enzymatic Assay for human Ephrin type-A Receptor 1 (EphA1) (AID 2283158);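 also: activity is signal loss versus DMSO meaning EphA1 kinase inhibition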
# How it was run: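 Recombinant kinase, fluorescent substrate, mobility-shift separation, fluorescence read at 1 h. Single-point duplicates at 25 uM; hits (e.g., ≥30% inhibition) run singleton concentration-response, max 50 uM. DMSO = negative control/baseline.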
# [11] = target: Peroxisome proliferator-activated receptor gamma (Homo sapiens) (UniProt P37231); experiment: NVS_NR_hPPARg: NovaScreen (NVS) Nuclear Receptor Binding Assay for human Peroxisome Proliferator-activated Receptor gamma (PPARg) (AID 2283370)
# How it was run: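 FP read-out, 2 h post-dose, cell-free extracted receptor protein. Signal loss vs DMSO negative control = binding activity. Single-conc duplicate HTS at 25 uM; concentration-response follow-up for actives.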
# [12] = Tanguay_ZF_120hpf_NC_legacy: (Legacy) Oregon State University Tanguay Lab 120 Hour Post-fertilization zebrafish Assay for Notochord and Tail Malformation (AID 2283656)
# How it was run: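 Dechorionated Tropical 5D wild-type zebrafish embryos, one per well from 6 hpf, statically exposed to 120 hpf at 28C in 0.64% DMSO final. Notochord distortion scored present/absent by brightfield; dead embryos excluded.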
# [13] = target: Estrogen receptor beta (Homo sapiens) (UniProt Q92731); experiment: OT_ER_ERbERb_0480: Odyssey Thera (OT) 8-hour HEK293T Protein-Complementation Assay for Estrogen Receptor-beta/-beta Homodimer (AID 2283357);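 also: active means signal gain over DMSO baseline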
# How it was run: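 Fluorescence intensity, nuclear for agonists and nuclear plus cytoplasmic for antagonists, was quantified by laser scanning cytometry versus vehicle after 8 h treatment. The cells were HEK293T stably carrying ER beta LBD fragment-complementation partners.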
smiles,measurement,setting,value
CCCCC(CC)C(=O)O (stereo unspecified),AC50,[1],inconclusive: 3.95 µM
same,AC50,[2],inconclusive: 101 µM
same,AC50,[3],inconclusive: 1.79 µM
same,AC50,[4],inconclusive: 9 µM
same,AC50,[5],inconclusive: 135 µM
same,AC50,[6],inconclusive: 18 µM
same,outcome,[7],inactive
same,outcome,[8],inactive
same,outcome,[9],inactive
COC(=O)c1ccccc1,AC50,[10],inconclusive: 6.7 µM
CC1=CCC2CC1C2(C)C (stereo unspecified),AC50,[11],inconclusive: 25 µM
same,AC50,[7],inconclusive: 0.989 µM
CCCCOCCOCCOCc1cc2c(cc1CCC)OCO2,AC50,[3],active: 10.7 µM
same,AC50,[6],active: 48 µM
O=C(O)c1cccc(C[C@@H]2COc3ccc(OCc4nc5cc(F)ccc5s4)cc3[C@@H]2O)c1,AC50,[12],inconclusive: 20.2 µM
CC(C)(O)c1ccc(CNC(=O)c2cccnc2Oc2ccc(F)cc2)cc1,AC50,[13],inconclusive: 50 µM
same,AC50,[4],inconclusive: 17.4 µM
same,AC50,[5],inconclusive: 46.6 µM
same,AC50,[6],inconclusive: 202 µM
same,outcome,[7],inactive
same,AC50,[9],inconclusive: 100 µM
C=Cc1ccc(C)cc1,AC50,[7],inconclusive: 0.121 µM
CN(C)c1cccc(O)c1,outcome,[11],inactive
CCCC(=O)OC(C)(C)Cc1ccccc1,AC50,[11],active: 13.4 µM
CCCCC(CC)COCCC#N (stereo unspecified),AC50,[10],inconclusive: 25 µM
CCCCCCCCCCCCC,AC50,[10],inconclusive: 25 µM

# At a glance, part of the list above:
smiles,measurement,setting,value
CC(C)(O)c1ccc(CNC(=O)c2cccnc2Oc2ccc(F)cc2)cc1,AC50,[6],inconclusive: 202 µM
same,outcome,[7],inactive
same,AC50,[9],inconclusive: 100 µM
C=Cc1ccc(C)cc1,AC50,[7],inconclusive: 0.121 µM
CN(C)c1cccc(O)c1,outcome,[11],inactive
CCCC(=O)OC(C)(C)Cc1ccccc1,AC50,[11],active: 13.4 µM
CCCCC(CC)COCCC#N (stereo unspecified),AC50,[10],inconclusive: 25 µM

# — PubChem BioAssay (EPA / NIEHS)
